In article doi:10.1101/2024.10.21.619550:
No constants are given. Whether binding was seen depends on the method and setting. Binding seen in cells or lysates may run through a third protein. Some binding calls cover weakened binding; strength is not graded here.

Sequences of proteins named here, by UniProt entry; tags and fusion partners are left off.
UniProt P46937: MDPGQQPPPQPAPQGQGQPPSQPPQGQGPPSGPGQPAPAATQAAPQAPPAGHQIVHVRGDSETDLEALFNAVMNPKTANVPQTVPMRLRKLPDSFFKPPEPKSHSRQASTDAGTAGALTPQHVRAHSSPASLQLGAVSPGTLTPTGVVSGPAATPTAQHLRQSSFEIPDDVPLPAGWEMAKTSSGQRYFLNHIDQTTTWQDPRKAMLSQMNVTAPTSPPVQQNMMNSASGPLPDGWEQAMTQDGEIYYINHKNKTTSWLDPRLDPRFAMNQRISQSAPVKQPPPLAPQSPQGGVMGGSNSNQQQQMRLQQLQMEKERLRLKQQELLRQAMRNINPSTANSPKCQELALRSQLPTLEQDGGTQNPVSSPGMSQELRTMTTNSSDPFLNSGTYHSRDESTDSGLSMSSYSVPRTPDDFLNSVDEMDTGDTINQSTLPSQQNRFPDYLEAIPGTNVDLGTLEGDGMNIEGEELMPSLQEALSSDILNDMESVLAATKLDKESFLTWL
UniProt P31946: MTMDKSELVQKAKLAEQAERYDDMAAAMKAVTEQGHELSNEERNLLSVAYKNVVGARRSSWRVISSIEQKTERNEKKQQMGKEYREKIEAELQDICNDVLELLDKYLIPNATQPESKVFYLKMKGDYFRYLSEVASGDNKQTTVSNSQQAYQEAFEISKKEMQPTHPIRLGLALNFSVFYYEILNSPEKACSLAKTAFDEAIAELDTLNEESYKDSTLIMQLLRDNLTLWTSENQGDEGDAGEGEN

Legend:
[1] = target: p-YAP(s127) (UniProt P46937); assay: co-IP
[2] = target: 14-3-3β protein (YWHAB) (human (endogenous in HUVECs)) (UniProt P31946); assay: co-IP

B1: zyxin (protein, UniProt Q15942 1-572)
chain: MAAPRPSPAISVSVSAPAFYAPQKKFGPVVAPKPKVNPFRPGDSEPPPAPGAQRAQMGRVGEIPPPPPEDFPLPPPPLAGDGDDAEGALGGAFPPPPPPIEESFPPAPLEEEIFPSPPPPPEEEGGPEAPIPPPPQPREKVSSIDLEIDSLSSLLDDMTKNDPFKARVSSGYVPPPVATPFSSKSSTKPAAGGTAPLPPWKSPSSSQPLPQVPAPAQSQTQFHVQPQPQPKPQVQLHVQSQTQPVSLANTQPRGPPASSPAPAPKFSPVTPKFTPVASKFSPGAPGGSGSQPNQKLGHPEALSAGTGSPQPPSFTYAQQREKPRVQEKQHPVPPPAQNQNQVRSPGAPGPLTLKEVEELEQLTQQLMQDMEHPQRQNVAVNELCGRCHQPLARAQPAVRALGQLFHIACFTCHQCAQQLQGQQFYSLEGAPYCEGCYTDTLEKCNTCGEPITDRMLRATGKAYHPHCFTCVVCARPLEGTSFIVDQANRPHCVPDYHKQYAPRCSVCSEPIMPEPGRDETVRVVALDKNFHMKCYKCEDCGKPLSIEADDNGCFPLDGHVLCRKCHTARAQT
binding [1]: no binding | binding [2]: binds
